Hit rate of the full screen: of about 1,400 compounds, about 30 (2%) were called active. About 15% were inconclusive and are not listed. Calls follow the shape of the dose curve; as a rule, active = well fitted inhibition curve with a large enough effect; inconclusive = small, poorly fitted or top-dose-only effect; inactive = flat fitted curve, though single readings scatter. The list shows a part of the results.
Assay: Firefly Luciferase Counterscreen for Inhibitors of ATXN expression
Conditions: luminescence; series mostly up to 57.5 µM; activity change, negative = inhibition: at the top concentration
How it was run: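 Recombinant firefly luciferase at 10 nM final in 50 mM Tris pH 7.5, 10 mM MgCl2, 0.05% BSA, 0.01% Tween20 with substrate; compounds up to 57 uM final, 10 min room temperature, end-point luminescence. Buffer-only wells define 100% inhibition.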
% is scaled to controls: 0 for no effect and ±100 for the full control effect.

Row | SMILES | activity change, negative = inhibition
1 | Cc1ccccc1C(=O)/C(C#N)=N/Nc1c(C)n(C)n(-c2ccccc2)c1=O | inactive: -0.209%
2 | Cc1cc(NC(=O)CSc2nc3c(sc4ccccc43)c(=O)n2CCCN2CCOCC2)n[nH]1 | inactive: -0.172%
3 | O=[N+]([O-])c1ccc(O)c(/C=N/Nc2ccccn2)c1 | inactive: -4.31%
4 | Oc1c(C(c2ccccn2)N2CCCCC2)cc(Cl)c2cccnc12 (configuration not stated) | inactive: -5.74%
5 | COc1ccc(Oc2c(Cl)cnn(-c3ccc(C)cc3)c2=O)cc1 | inactive: -2.27%
6 | CC(=O)Nc1ccc(Nc2c3ccccc3nc3ccccc23)cc1 | inactive: -8.27%
7 | COc1ccc(OCCNC(=O)C2(C)CCN2Cc2ccc3ccccc3c2)cc1 (configuration not stated) | inactive: -2.48%
8 | Cc1cccn2c(=O)c(C(=O)NC3CC(C)CC(C)(C)C3)c(O)nc12 (configuration not stated) | inactive: 2.03%
9 | OCCN1CCN(Cc2cc(Cl)c3cccnc3c2O)CC1 | inactive: 0.949%
10 | O=C(COC(=O)c1cc([N+](=O)[O-])ccc1N1CCOCC1)Nc1ccc(Cl)cn1 | inactive: 1.13%
11 | CCOc1ccc(C(=O)Nc2ccc(Cc3ccncc3)cc2)cc1Br | inactive: -16.7%
12 | CN1CCN(c2ccccc2NC(=O)c2ccc(-c3ccc(Cl)c(Cl)c3)o2)CC1 | inactive: 2.05%
13 | Cc1ccc(NC(=O)COc2ccc(Br)cc2CO)cc1S(=O)(=O)N1CCOCC1 | inactive: -4.3%
14 | CC(=O)N1c2ccc(S(=O)(=O)N3CCC(C(=O)N4CCN(c5ccc(Cl)cc5)CC4)CC3)cc2CC1C (configuration not stated) | inactive: -0.287%
15 | CCOC(=O)c1c(C)nn(-c2ccc(NC(=O)c3cccs3)cc2)c1C | inactive: -9.56%
16 | O=C(CSc1nc(Nc2ccccc2)nc(N2CCOCC2)n1)Nc1cc(Cl)ccc1O | inactive: -11.9%
17 | CCCCN1C(=O)/C(=C2/Sc3ccccc3N2C)S/C1=N\c1ncn[nH]1 | inactive: -6.33%
18 | O=c1c2ccccc2sc2c(CO)ccc(NCCN3CCCCC3)c12 | inactive: -1.36%
19 | COc1ccc2nc(C)cc(Nc3ccc(N4CCOCC4)cc3)c2c1 | inactive: 0.237%
20 | O=S(=O)(c1ccc(F)cc1)c1snnc1-c1ccccc1 | inactive: 1.44%
21 | O=C(NNC(=O)C12CC3CC(CC(C3)C1)C2)c1ccccn1 | inactive: -4.43%
22 | Cc1ccc(C(=O)N/C(=C\c2ccc(-c3ccc(Cl)cc3)o2)C(=O)NCCCN(C)C)cc1 | inactive: -2.25%
23 | c1ccc(Cn2c(-c3ccccc3)c[n+]3c2SCCC3)cc1 | inactive: 2.54%

Arranged by count of non-hydrogen atoms (falling): 3 of the compounds above
Row | SMILES | activity change, negative = inhibition
2 | Cc1cc(NC(=O)CSc2nc3c(sc4ccccc43)c(=O)n2CCCN2CCOCC2)n[nH]1 | inactive: -0.172%
8 | Cc1cccn2c(=O)c(C(=O)NC3CC(C)CC(C)(C)C3)c(O)nc12 (configuration not stated) | inactive: 2.03%
23 | c1ccc(Cn2c(-c3ccccc3)c[n+]3c2SCCC3)cc1 | inactive: 2.54%

The list continues:

Row | SMILES | activity change, negative = inhibition
24 | CN(C)CCCN(C(=O)c1ccco1)c1nc2ccc(Br)cc2s1 | inactive: -9.87%
25 | Cn1c(COc2ccc(Cl)cc2)nnc1SCc1ncc(-c2ccccc2)o1 | inactive: -8.84%
26 | N#C/C(=C\C=C\c1ccccc1[N+](=O)[O-])C(=O)NC1CCCCC1 | inactive: -6.94%
27 | O=[N+]([O-])c1ccc(O)c2ncccc12 | inactive: -14.6%
28 | Cc1cc(O)c(C(C)C)cc1N=Cc1ccccc1[N+](=O)[O-] | inactive: -8.59%
29 | Cc1cc(C)nc(/N=C(\N)Nc2ccc(OCc3ccccc3)cc2)n1 | inactive: -2.97%
30 | O=C1N/C(=N/N=C/c2ccccc2O)SC1Cc1ccc(F)cc1 (configuration not stated) | inactive: -4.65%
31 | COc1ccc(C)cc1NC(=O)COC(=O)c1c(C)nn(-c2ccccc2)c1C | inactive: -5.21%
32 | CC(C)(C)c1cc(C(=O)NN)n(Cc2ccc(Cl)cc2Cl)n1 | inactive: -0.197%
33 | CC(=O)Oc1ccc(N(C(C)=O)S(=O)(=O)c2cccs2)c2ccccc12 | inactive: -8.46%
34 | CCc1nn2cc(C(=O)c3cc(Cl)ccc3O)cnc2c1-c1ccc(F)cc1 | inactive: -7.19%
35 | NC(c1csc(Nc2ccc(C(F)(F)F)cn2)n1)C1CCCCC1 (configuration not stated) | inactive: 3.49%
36 | O=C(N/N=C/c1cc([N+](=O)[O-])ccc1O)c1cccc2cc[nH]c12 | inactive: -6.69%
37 | OC1CCCN(Cc2c3ccccc3cc3ccccc23)C1 (configuration not stated) | inactive: -3.26%
38 | Cc1cc(C)cc(C(=O)N(NC(=O)Nc2ccc(Cl)cc2)C(C)(C)C)c1 | inactive: 0.606%
39 | CN(CC(=O)Nc1ccc(Cl)c(C(F)(F)F)c1)C(=O)c1cccnc1Sc1ccccc1 | inactive: 2.21%
40 | COc1cc(-c2cnc3c(NC=O)cc(-c4cccc(C(F)(F)F)c4)cn23)cc(OC)c1OC | inactive: -4.12%
41 | CCOC(=O)c1sc2nc(CSc3ccccc3)nc(NCCN(C)C)c2c1C | inactive: 0.864%
42 | Cc1occc1C(=O)N/N=C/c1c(O)ccc2ccccc12 | inactive: -18.3%
43 | O=C(CNC(=O)c1ccc(F)cc1)N/N=C/c1cc(Br)ccc1OC(=O)/C=C/c1ccco1 | inactive: -1.3%
44 | CC[n+]1c(/C=C/N(C)c2ccccc2)oc2ccc(F)cc21 | inactive: 2.57%
45 | CC1CC(Nc2ccccc2)c2ccccc2N1C(=O)c1cccnc1 (configuration not stated) | inactive: 2.41%
46 | COc1ccccc1CNc1nc(NCc2cccc(OC)c2OC)c2sccc2n1 | inactive: -8.98%

Row | SMILES | activity change, negative = inhibition
47 | CCCCCc1ccc(OCCCC[n+]2cccc(C)c2)c(CCCCC)c1 | inactive: 2.9%
48 | O=C(N/N=C/c1sc(N2CCOCC2)nc1-c1ccccc1)c1ccccc1O | inactive: -18.3%
49 | Cc1ccc(S(=O)(=O)c2cc3cc(Br)ccc3oc2=O)cc1 | inactive: -1.09%
50 | Oc1c(CN2CCOCC2)cc(COCc2ccccc2)c2cccnc12 | inactive: 0.0549%
51 | CCN(CC)CCCNc1nc2ccccc2c2nc(-c3ccncc3)nn12 | inactive: -3.43%
52 | COc1ccc2oc(/C=C/N(C)C)c(C(=O)c3ccc(Cl)cc3)c2c1 | inactive: -4.4%
53 | CCn1c2ccccc2c2cc(NC(=O)COC(=O)c3cccc(S(=O)(=O)NC)c3)ccc21 | inactive: -5.82%
54 | CSc1ncnc2c1ncn2CC(=O)C1CCC2C3CCC4=CC(=O)CCC4(C)C3CCC12C (configuration not stated) | inactive: -0.252%
55 | CCN1CCN(C(=S)c2ccc(-c3ccccc3)cc2)CC1 | inactive: -6.16%
56 | COc1cccc2nc3c(C(=O)NCCN(C)C)cccc3cc12 | inactive: -5.3%
57 | O=C(c1ccoc1)N1CCN(c2cc(-c3ccccc3)nc3cc(-c4ccccc4)nn23)CC1 | inactive: 0.794%
58 | COc1ccc(OC)c(NC(=O)CSc2nnnn2-c2ccc3c(c2)OCO3)c1 | inactive: 0.0331%
59 | CCCCOc1ccc(CSC(=N)N)cc1Cl | inactive: -4.4%
60 | Cc1ccc(/C=C2\SC(=S)N(CCCC(=O)Nc3nccs3)C2=O)cc1 | inactive: -2.68%
61 | Cc1ccc(-n2ncc(C(=O)Nc3ccc(Cl)cc3)c2C2CCNCC2)cc1C | inactive: 0.188%
62 | C[C@@H]1CC=C[C@@H]2[C@H]1C(=O)N(Cc1ccccc1)[C@H]2c1ccccc1Br | inactive: -7.47%
63 | COc1ccccc1/C=C\C(=O)NCC(=O)N/N=C/c1cccc(OC)c1O | inactive: -7.1%
64 | O=C(N/N=C1\CCCc2c1[nH]c1ccc(Cl)cc21)c1ccncc1 | inactive: -6.51%
65 | OCCN1CCN(C(=S)c2ccc(-c3ccccc3)cc2)CC1 | inactive: -15%
66 | Cc1cc(SCC(=O)OC/C(O)=C(\C#N)c2nc3ccccc3[nH]2)c(C)cc1Br | inactive: -12.3%
67 | CC(C)C(CCNCc1ccccn1)c1ccc(Cl)cc1 (configuration not stated) | inactive: 5.07%
